{
  "source": "patent US20230114753A1",
  "about": "“USE OF A GROUP OF MARKERS FOR DIAGNOSING AND ADJUSTING TREATMENT OF PRIMARY BILIARY CHOLANGITIS, PHARMACEUTICAL COMPOSITION AND SOLID DOSAGE FORM FOR TREATING PRIMARY BILIARY CHOLANGITIS” (MILI HEALTHCARE TRADE DMCC, LIMITED LIABILITY COMPANY, priority 2020, published 2023)",
  "origin": "cited, not measured here",
  "system": "patients with PBC",
  "conditions": "systematic review of 16 randomized clinical trials versus placebo; cited from earlier work",
  "note": "At least one structure is not confirmed: it was looked up by name or label, or the drawing left a doubt.",
  "data": [
    {"smiles": "C[C@H](CCC(=O)O)[C@H]1CC[C@H]2[C@@H]3[C@@H](O)C[C@@H]4C[C@H](O)CC[C@]4(C)[C@H]3CC[C@]12C", "note": "[UDCA, ursodeoxycholic acid]", "values": [
      {"measurement": "effect on mortality or the need for liver transplantation", "result": "no significant effect"}
    ]}
  ]
}
